{"source": "paper PMC8964761", "key": {"[1]": {"target": "uPAR^H47C/N259C fused with mRuby3 (human) (UniProt Q03405)", "test": "cross-linking; 293T cells stably expressing mRuby3-fused uPAR treated with 0.5 mM membrane-impermeable BS3 in PBS, 30 min, 4 °C; lysed; anti-uPAR immunoblot"}, "[2]": {"target": "Flag-tagged wild-type uPAR (human) (UniProt Q03405)", "test": "co-IP; mRuby3-fused uPAR mutants co-expressed with Flag-tagged wild-type uPAR in 293T cells; anti-Flag beads; blot with anti-uPAR"}, "[3]": {"target": "uPAR^E49P fused with mRuby3 (human) (UniProt Q03405)", "test": "cross-linking; 293T cells stably expressing mRuby3-fused uPAR treated with 0.5 mM membrane-impermeable BS3 in PBS, 30 min, 4 °C; lysed; anti-uPAR immunoblot"}, "[4]": {"target": "uPAR^T51C/V70C fused with mRuby3 (human) (UniProt Q03405)", "test": "cross-linking; 293T cells stably expressing mRuby3-fused uPAR treated with 0.5 mM membrane-impermeable BS3 in PBS, 30 min, 4 °C; lysed; anti-uPAR immunoblot"}}, "note": "No constants are given. Whether binding was seen depends on the method and setting. Binding seen in cells or lysates may run through a third protein. Some entries that bind do so weakly or less than the wild type.", "data": [{"substance": "uPAR^H47C/N259C fused with mRuby3 (from UniProt Q03405 23-305) (receptor)", "values": [{"measurement": "binding", "setting": "[1]", "result": "no binding"}]}, {"substance": "uPAR^E49P fused with mRuby3 (from UniProt Q03405 23-305) (receptor)", "values": [{"measurement": "binding", "setting": "[2]", "result": "binds"}, {"measurement": "binding", "setting": "[3]", "result": "binds"}]}, {"substance": "uPAR^T51C/V70C fused with mRuby3 (from UniProt Q03405 23-305) (receptor)", "values": [{"measurement": "binding", "setting": "[4]", "result": "binds weakly"}]}]}
